No constants are given. Whether binding was seen depends on the method and setting. In cells and extracts the contact can be indirect. A yes stands for co-enrichment or nearness to the bait. Other partners may have been found. For some assays here: A no says only that the protein was not detected with the bait. For some assays here: Sequences can lack the tags named with a protein.
T1: ALFA-Sac1 (S. cerevisiae) (UniProt P32368)
T1 sequence: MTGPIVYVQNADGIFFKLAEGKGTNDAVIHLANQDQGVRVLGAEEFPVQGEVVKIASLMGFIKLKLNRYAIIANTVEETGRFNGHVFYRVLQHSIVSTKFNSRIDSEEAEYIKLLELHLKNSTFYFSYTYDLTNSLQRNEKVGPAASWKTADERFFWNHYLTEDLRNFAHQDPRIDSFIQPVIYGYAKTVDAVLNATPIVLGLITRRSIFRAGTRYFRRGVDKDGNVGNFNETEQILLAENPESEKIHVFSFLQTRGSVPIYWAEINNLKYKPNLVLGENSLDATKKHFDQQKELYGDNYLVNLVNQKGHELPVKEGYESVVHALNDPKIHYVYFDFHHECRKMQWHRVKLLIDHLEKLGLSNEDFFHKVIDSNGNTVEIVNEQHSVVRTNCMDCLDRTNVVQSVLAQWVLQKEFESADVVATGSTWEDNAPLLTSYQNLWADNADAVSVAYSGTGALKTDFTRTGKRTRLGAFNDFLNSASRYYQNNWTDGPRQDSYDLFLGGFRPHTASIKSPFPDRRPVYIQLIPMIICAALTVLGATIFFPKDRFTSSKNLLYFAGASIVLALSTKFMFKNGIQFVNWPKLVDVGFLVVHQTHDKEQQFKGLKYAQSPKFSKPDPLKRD

Sequences of proteins named here, by UniProt entry; tags and fusion partners are left off.
UniProt P53224: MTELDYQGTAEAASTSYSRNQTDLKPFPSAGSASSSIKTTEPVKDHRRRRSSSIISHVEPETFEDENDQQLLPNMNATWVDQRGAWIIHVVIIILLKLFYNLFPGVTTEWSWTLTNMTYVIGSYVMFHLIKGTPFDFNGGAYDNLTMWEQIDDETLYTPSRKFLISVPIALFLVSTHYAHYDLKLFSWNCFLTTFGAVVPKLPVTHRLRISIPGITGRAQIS

T2: D. discoideum GFP-Sac1 (D. discoideum) (UniProt Q55AW9)
T2 sequence: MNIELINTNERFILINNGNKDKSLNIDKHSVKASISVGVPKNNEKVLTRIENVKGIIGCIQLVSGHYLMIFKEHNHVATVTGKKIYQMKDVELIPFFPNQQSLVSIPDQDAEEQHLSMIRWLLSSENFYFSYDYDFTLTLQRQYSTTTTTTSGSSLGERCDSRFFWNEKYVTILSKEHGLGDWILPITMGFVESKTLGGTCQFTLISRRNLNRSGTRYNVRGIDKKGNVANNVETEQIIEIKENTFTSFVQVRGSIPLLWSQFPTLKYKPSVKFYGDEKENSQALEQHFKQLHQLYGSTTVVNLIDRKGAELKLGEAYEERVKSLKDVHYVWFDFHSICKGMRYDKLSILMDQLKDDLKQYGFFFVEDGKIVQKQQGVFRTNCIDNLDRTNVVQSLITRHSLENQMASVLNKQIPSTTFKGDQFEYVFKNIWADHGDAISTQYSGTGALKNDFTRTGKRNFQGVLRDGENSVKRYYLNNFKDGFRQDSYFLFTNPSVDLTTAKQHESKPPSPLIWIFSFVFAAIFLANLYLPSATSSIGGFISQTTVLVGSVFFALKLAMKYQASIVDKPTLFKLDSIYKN

B1: Lcb1 (enzyme, UniProt P25045 1-558)
chain: MAHIPEVLPKSIPIPAFIVTTSSYLWYYFNLVLTQIPGGQFIVSYIKKSHHDDPYRTTVEIGLILYGIIYYLSKPQQKKSLQAQKPNLSPQEIDALIEDWEPEPLVDPSATDEQSWRVAKTPVTMEMPIQNHITITRNNLQEKYTNVFNLASNNFLQLSATEPVKEVVKTTIKNYGVGACGPAGFYGNQDVHYTLEYDLAQFFGTQGSVLYGQDFCAAPSVLPAFTKRGDVIVADDQVSLPVQNALQLSRSTVYYFNHNDMNSLECLLNELTEQEKLEKLPAIPRKFIVTEGIFHNSGDLAPLPELTKLKNKYKFRLFVDETFSIGVLGATGRGLSEHFNMDRATAIDITVGSMATALGSTGGFVLGDSVMCLHQRIGSNAYCFSACLPAYTVTSVSKVLKLMDSNNDAVQTLQKLSKSLHDSFASDDSLRSYVIVTSSPVSAVLHLQLTPAYRSRKFGYTCEQLFETMSALQKKSQTNKFIEPYEEEEKFLQSIVDHALINYNVLITRNTIVLKQETLPIVPSLKICCNAAMSPEELKNACESVKQSILACCQESNK
B2: Lcb2 (enzyme, UniProt P40970 1-561)
chain: MSTPANYTRVPLCEPEELPDDIQKENEYGTLDSPGHLYQVKSRHGKPLPEPVVDTPPYYISLLTYLNYLILIILGHVHDFLGMTFQKNKHLDLLEHDGLAPWFSNFESFYVRRIKMRIDDCFSRPTTGVPGRFIRCIDRISHNINEYFTYSGAVYPCMNLSSYNYLGFAQSKGQCTDAALESVDKYSIQSGGPRAQIGTTDLHIKAEKLVARFIGKEDALVFSMGYGTNANLFNAFLDKKCLVISDELNHTSIRTGVRLSGAAVRTFKHGDMVGLEKLIREQIVLGQPKTNRPWKKILICAEGLFSMEGTLCNLPKLVELKKKYKCYLFIDEAHSIGAMGPTGRGVCEIFGVDPKDVDILMGTFTKSFGAAGGYIAADQWIIDRLRLDLTTVSYSESMPAPVLAQTISSLQTISGEICPGQGTERLQRIAFNSRYLRLALQRLGFIVYGVADSPVIPLLLYCPSKMPAFSRMMLQRRIAVVVVAYPATPLIESRVRFCMSASLTKEDIDYLLRHVSEVGDKLNLKSNSGKSSYDGKRQRWDIEEVIRRTPEDCKDDKYFVN
B3: Orm2 (protein, UniProt Q06144 1-216)
chain: MIDRTKNESPAFEESPLTPNVSNLKPFPSQSNKISTPVTDHRRRRSSSVISHVEQETFEDENDQQMLPNMNATWVDQRGAWLIHIVVIVLLRLFYSLFGSTPKWTWTLTNMTYIIGFYIMFHLVKGTPFDFNGGAYDNLTMWEQINDETLYTPTRKFLLIVPIVLFLISNQYYRNDMTLFLSNLAVTVLIGVVPKLGITHRLRISIPGITGRAQIS
B4: Tsc3 (protein, UniProt Q3E790 1-80)
chain: MTQHKSSMVYIPTTKEAKRRNGKSEGILNTIEEVVEKLYWTYYIHLPFYLMASFDSFFLHVFFLTIFSLSFFGILKYCFL
B5: sptA (enzyme, UniProt Q55FL5 1-479)
chain: MFLFDIYNNILYYTKEFIVTSTSPNLFIHGLMAVFIIYLLTKRPFKPRQNDTLTKAEEDELIREWSPIPLTPKSNPLEVLNQTELIIQESEGTHVTINNKKYLNLARSNYLGLINNPEINKISENAIRKYGVGSCGPRGFYGTIDVHLDLEKKTASFMKTPEAVLYSSAYATISSAIPSFSKIGDIIIVDRGVSQPVQVGVSLSRSRIYYFNHNDMDDLQRVLEQTQFKGSKAKIVRKFVVIEGLYYNSGTIAPLPQILKFKEQYKFRLIMDESHSVGVLGSTGRGLTEHYNIDTNLVDILTGSYGNSFSSGGGFCCGSPEVVYHQRLNGVGYVFSASLPPFLACSSTKAIEMLEENPKMLEMLHSNIGELYQGLNKSGALNGLLEITSLPISPVIHLSLLDSKSNKSNRINDELLLQKIVDKAMDYGLLLTRAKYVSAEKFIPKPSIRISVSSNLSSDQIKQSIEIIKKCTSFVLESN
B6: sptB (enzyme, UniProt Q54EX5 1-490)
chain: MEDKEDVENVDDVGYLPILFLYIAYAFIIFNGKLAEFIGKLKGERYLHTPEGYAPLFVEFEYFYQRRMYGRIKDAWDRPINSIAGAWIDVMPRASKHYSQRLELTGGKTIKCLNLGSYNYLGFAQNEGPVADKVIDSIYKYGVYTGSTSAEVGLSEPQRDLENLTARFVGKEDAIVFEMGFATNSGTLPALIGKGGLIISDSLNHASLATGCKNTGCKVKVFRHNDSKHLEEVIRESIIQGQPRTHRPWTMILIIIEGIYSMEGEVANLPEILAIKKKYKCYLYIDEAHSIGALGKTGRGIVDYYGIDPKEIDILMGTYTKSFGAIGGYVASDKSLIDHLRQSSFSQVYANSMSPVCAVQALEALRVIMGEDGTDTGAKKLKQLHDNSNYFREKIREMGFVILGNKDSPVIPLMLFNPAKLSAFSRLCLEKHIAVVVVGYPATPLTEPRTRFCISASHTIEDLDWALRQIDEIGDLITLKFHKGKYLKSK

target: T1, ALFA-Sac1 (S. cerevisiae); test: affinity purification with mass spectrometry; ALFA beads, S. cerevisiae lysate in 20 mM HEPES pH 7.4, 150 mM KOAc, 5% glycerol, 1% GDN, 4 °C; label free proteomics against untagged control cells

binding | Molecule
binds | Orm1 (from UniProt P53224 1-222)
binds | B1
binds | B2
binds | B3

target: ALFA-sac1Δ574 (S. cerevisiae); test: as above

binding | Molecule
no binding | B1
no binding | B4
no binding | B2
no binding | B3

target: T2, D. discoideum GFP-Sac1 (D. discoideum); test: affinity purification with mass spectrometry; GFP-Trap beads, D. discoideum lysate in 20 mM HEPES pH 7.4, 150 mM KOAc, 5% glycerol, 1% GDN, 4 °C; label free proteomics against control cells

binding | Molecule
binds | Orm1-like protein 2
binds | B5
binds | B6

From paper PMC10550967, “Structure of the ceramide-bound SPOTS complex” (Nature Communications, 2023)
